No constants are given. Whether binding was seen depends on the method and setting. In cells and extracts the contact can be indirect. Here binding means that the protein was enriched with, or labelled near, the bait; the list need not be complete.
Target: T1, GS^rhino-PFD6 (Arabidopsis) (UniProt Q2HIK4)
T1 sequence: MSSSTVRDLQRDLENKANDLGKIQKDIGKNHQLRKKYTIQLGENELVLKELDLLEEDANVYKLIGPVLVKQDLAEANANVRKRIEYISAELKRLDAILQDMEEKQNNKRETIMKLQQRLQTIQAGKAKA
Test: affinity purification with mass spectrometry

Chains of the proteins cited; added tags and fusions are not shown.
UniProt O81098: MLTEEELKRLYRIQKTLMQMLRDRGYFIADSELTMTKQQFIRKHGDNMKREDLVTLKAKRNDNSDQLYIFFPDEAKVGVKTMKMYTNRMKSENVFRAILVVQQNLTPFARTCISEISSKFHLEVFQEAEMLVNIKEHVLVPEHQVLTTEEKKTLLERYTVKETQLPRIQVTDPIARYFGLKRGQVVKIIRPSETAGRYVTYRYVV

binding	Substance
binds	NRPB5C
binds	NRPB5A (from UniProt O81098 1-205)
